Further values from the same series stand in other lists.
Key:
Type in all cases: cell-based
[1] = molecular target: T1, RNA polymerase II (Mus musculus) (UniProt P08775+Q8CFI7+P97760+A0A3Q4L2S8+Q80UW8+P61219+P62488+Q923G2+P60898+O08740+Q63871+P62876); assay: Inhibition of RNA polymerase II in mouse B16-F1 migrating cells assessed as fold change in Ergic2-RNA stability at 0.1 mM measured by ChIP-seq analysis relative to control cells
[2] = molecular target: T1, RNA polymerase II (Mus musculus); assay: Inhibition of RNA polymerase II in mouse B16-F1 migrating cells assessed as fold change in Rbpms-RNA stability at 0.1 mM measured by ChIP-seq analysis relative to control cells
[3] = molecular target: T1, RNA polymerase II (Mus musculus); assay: Inhibition of RNA polymerase II in mouse B16-F1 migrating cells assessed as fold change in Inpp4b-RNA stability at 0.1 mM measured by ChIP-seq analysis relative to control cells
[4] = molecular target: T1, RNA polymerase II (Mus musculus); assay: Inhibition of RNA polymerase II in mouse B16-F1 migrating cells assessed as fold change in Ero1l-RNA stability at 0.1 mM measured by ChIP-seq analysis relative to control cells
[5] = molecular target: T1, RNA polymerase II (Mus musculus); assay: Inhibition of RNA polymerase II in mouse B16-F1 migrating cells assessed as fold change in Cenpj-RNA stability at 0.1 mM measured by ChIP-seq analysis relative to control cells
[6] = molecular target: T1, RNA polymerase II (Mus musculus); assay: Inhibition of RNA polymerase II in mouse B16-F1 migrating cells assessed as fold change in Atp6v0d1-RNA stability at 0.1 mM measured by ChIP-seq analysis relative to control cells
[7] = molecular target: T1, RNA polymerase II (Mus musculus); assay: Inhibition of RNA polymerase II in mouse B16-F1 migrating cells assessed as fold change in Tpr-RNA stability at 0.1 mM measured by ChIP-seq analysis relative to control cells
[8] = molecular target: T1, RNA polymerase II (Mus musculus); assay: Inhibition of RNA polymerase II in mouse B16-F1 migrating cells assessed as fold change in Mbtps2-RNA stability at 0.1 mM measured by ChIP-seq analysis relative to control cells
[9] = molecular target: T1, RNA polymerase II (Mus musculus); assay: Inhibition of RNA polymerase II in mouse B16-F1 migrating cells assessed as fold change in Smc5-RNA stability at 0.1 mM measured by ChIP-seq analysis relative to control cells
[10] = molecular target: T1, RNA polymerase II (Mus musculus); assay: Inhibition of RNA polymerase II in mouse B16-F1 migrating cells assessed as fold change in Spr-RNA stability at 0.1 mM measured by ChIP-seq analysis relative to control cells
[11] = molecular target: T1, RNA polymerase II (Mus musculus); assay: Inhibition of RNA polymerase II in mouse B16-F1 migrating cells assessed as fold change in Tm9sf3-RNA stability at 0.1 mM measured by ChIP-seq analysis relative to control cells
[12] = molecular target: T1, RNA polymerase II (Mus musculus); assay: Inhibition of RNA polymerase II in mouse B16-F1 migrating cells assessed as fold change in Ppp4r2-RNA stability at 0.1 mM measured by ChIP-seq analysis relative to control cells
[13] = molecular target: T1, RNA polymerase II (Mus musculus); assay: Inhibition of RNA polymerase II in mouse B16-F1 migrating cells assessed as fold change in Ptpn12-RNA stability at 0.1 mM measured by ChIP-seq analysis relative to control cells
[14] = molecular target: T1, RNA polymerase II (Mus musculus); assay: Inhibition of RNA polymerase II in mouse B16-F1 migrating cells assessed as fold change in Pkn2-RNA stability at 0.1 mM measured by ChIP-seq analysis relative to control cells
[15] = molecular target: T1, RNA polymerase II (Mus musculus); assay: Inhibition of RNA polymerase II in mouse B16-F1 migrating cells assessed as fold change in Krit1-RNA stability at 0.1 mM measured by ChIP-seq analysis relative to control cells
[16] = molecular target: T1, RNA polymerase II (Mus musculus); assay: Inhibition of RNA polymerase II in mouse B16-F1 migrating cells assessed as fold change in Cacybp-RNA stability at 0.1 mM measured by ChIP-seq analysis relative to control cells
[17] = molecular target: T1, RNA polymerase II (Mus musculus); assay: Inhibition of RNA polymerase II in mouse B16-F1 migrating cells assessed as fold change in Sppl2a-RNA stability at 0.1 mM measured by ChIP-seq analysis relative to control cells
[18] = molecular target: T1, RNA polymerase II (Mus musculus); assay: Inhibition of RNA polymerase II in mouse B16-F1 migrating cells assessed as fold change in Larp7-RNA stability at 0.1 mM measured by ChIP-seq analysis relative to control cells
[19] = molecular target: Histone-lysine N-methyltransferase EZH2 (Mus musculus) (UniProt Q61188); assay: Inhibition of EZH2 in mouse B16-F1 migrating cells assessed as fold change in H3K27me3-dependent regulated Nov-mRNA expression at 3 uM measured by ChIP-seq analysis relative to control cells
[20] = molecular target: Histone-lysine N-methyltransferase EZH2 (Mus musculus) (UniProt Q61188); assay: Inhibition of EZH2 in mouse B16-F1 migrating cells assessed as fold change in H3K27me3-independent regulated Itga5-mRNA expression at 3 uM measured by ChIP-seq analysis relative to control cells
[21] = molecular target: Histone-lysine N-methyltransferase EZH2 (Mus musculus) (UniProt Q61188); assay: Inhibition of EZH2 in mouse B16-F1 migrating cells assessed as fold change in H3K27me3-buffered regulated Cep170-mRNA expression at 3 uM measured by ChIP-seq analysis relative to control cells
[22] = molecular target: Histone-lysine N-methyltransferase EZH2 (Mus musculus) (UniProt Q61188); assay: Inhibition of EZH2 in mouse B16-F1 migrating cells assessed as fold change in H3K27me3-independent regulated Cenpe-mRNA expression at 3 uM measured by ChIP-seq analysis relative to control cells
[23] = molecular target: Histone-lysine N-methyltransferase EZH2 (Mus musculus) (UniProt Q61188); assay: Inhibition of EZH2 in mouse B16-F1 migrating cells assessed as fold change in H3K27me3-buffered regulated Lgr6-mRNA expression at 3 uM measured by ChIP-seq analysis relative to control cells
[24] = molecular target: Histone-lysine N-methyltransferase EZH2 (Mus musculus) (UniProt Q61188); assay: Inhibition of EZH2 in mouse B16-F1 migrating cells assessed as fold change in H3K27me3-independent regulated Vwf-mRNA expression at 3 uM measured by ChIP-seq analysis relative to control cells
[25] = molecular target: Histone-lysine N-methyltransferase EZH2 (Mus musculus) (UniProt Q61188); assay: Inhibition of EZH2 in mouse B16-F1 migrating cells assessed as fold change in H3K27me3-buffered regulated Rasd2-mRNA expression at 3 uM measured by ChIP-seq analysis relative to control cells
[26] = molecular target: Histone-lysine N-methyltransferase EZH2 (Mus musculus) (UniProt Q61188); assay: Inhibition of EZH2 in mouse B16-F1 migrating cells assessed as fold change in H3K27me3-dependent regulated Atoh8-mRNA expression at 3 uM measured by ChIP-seq analysis relative to control cells
[27] = molecular target: Histone-lysine N-methyltransferase EZH2 (Mus musculus) (UniProt Q61188); assay: Inhibition of EZH2 in mouse B16-F1 migrating cells assessed as fold change in H3K27me3-buffered regulated Ccar1-mRNA expression at 3 uM measured by ChIP-seq analysis relative to control cells
[28] = molecular target: Histone-lysine N-methyltransferase EZH2 (Mus musculus) (UniProt Q61188); assay: Inhibition of EZH2 in mouse B16-F1 migrating cells assessed as fold change in H3K27me3-buffered regulated Atg10-mRNA expression at 3 uM measured by ChIP-seq analysis relative to control cells
[29] = molecular target: Histone-lysine N-methyltransferase EZH2 (Mus musculus) (UniProt Q61188); assay: Inhibition of EZH2 in mouse B16-F1 migrating cells assessed as fold change in H3K27me3-dependent regulated Mbnl3-mRNA expression at 3 uM measured by ChIP-seq analysis relative to control cells
[30] = molecular target: Histone-lysine N-methyltransferase EZH2 (Mus musculus) (UniProt Q61188); assay: Inhibition of EZH2 in mouse B16-F1 migrating cells assessed as fold change in H3K27me3-buffered regulated Morn2-mRNA expression at 3 uM measured by ChIP-seq analysis relative to control cells

Chains of the proteins cited; added tags and fusions are not shown.
UniProt Q61188, whole entry: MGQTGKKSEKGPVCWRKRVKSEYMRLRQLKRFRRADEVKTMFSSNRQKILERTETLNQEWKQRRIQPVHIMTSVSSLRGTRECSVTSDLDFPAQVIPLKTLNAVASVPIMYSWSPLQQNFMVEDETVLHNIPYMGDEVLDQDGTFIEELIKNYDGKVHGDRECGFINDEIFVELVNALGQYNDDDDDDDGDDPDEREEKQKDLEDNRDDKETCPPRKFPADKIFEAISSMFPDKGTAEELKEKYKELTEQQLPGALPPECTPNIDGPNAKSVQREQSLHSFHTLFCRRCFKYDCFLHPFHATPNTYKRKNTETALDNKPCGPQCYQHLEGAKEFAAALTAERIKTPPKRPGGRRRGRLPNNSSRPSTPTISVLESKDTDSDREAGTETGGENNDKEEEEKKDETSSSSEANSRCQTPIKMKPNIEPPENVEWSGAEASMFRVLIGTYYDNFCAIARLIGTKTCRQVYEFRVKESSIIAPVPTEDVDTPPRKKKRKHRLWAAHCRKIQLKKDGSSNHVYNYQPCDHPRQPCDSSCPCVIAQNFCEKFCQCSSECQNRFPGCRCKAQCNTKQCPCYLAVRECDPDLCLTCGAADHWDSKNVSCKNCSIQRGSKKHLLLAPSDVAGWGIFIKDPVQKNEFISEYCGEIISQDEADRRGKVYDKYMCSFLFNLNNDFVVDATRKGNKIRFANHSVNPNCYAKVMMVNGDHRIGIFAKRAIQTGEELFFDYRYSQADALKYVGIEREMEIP

OC[C@H]1O[C@@H](n2cnc3cc(Cl)c(Cl)cc32)[C@H](O)[C@@H]1O
log2FC [1]: -0.5 | log2FC [2]: 0.55 | log2FC [3]: -0.52 | log2FC [4]: 0.61 | log2FC [5]: -0.92 | log2FC [6]: 0.62 | log2FC [7]: -0.76 | log2FC [8]: -0.62 | log2FC [9]: -0.79 | log2FC [10]: 0.39 | log2FC [11]: -0.52 | log2FC [12]: -0.52 | log2FC [13]: -0.66 | log2FC [14]: -0.67 | log2FC [15]: -0.76 | log2FC [16]: -0.64 | log2FC [17]: -0.51 | log2FC [18]: -0.46

CCCc1cc(C)[nH]c(=O)c1CNC(=O)c1cc(-c2ccnc(N3CCN(C)CC3)c2)cc2c1cnn2C(C)C
log2FC [19]: 0.48 | log2FC [20]: 0.42 | log2FC [21]: -0.38 | log2FC [22]: -0.64 | log2FC [23]: -0.78 | log2FC [24]: 0.52 | log2FC [25]: 0.59 | log2FC [26]: -0.03 | log2FC [27]: -0.39 | log2FC [28]: 0.41 | log2FC [29]: -0.42 | log2FC [30]: 0.47
